Reference: article PMC11963662
Results are given in words; binding and its absence hold for the method and conditions named. Binding seen in cells or lysates may run through a third protein. Some entries that bind do so weakly or less than the wild type.

T1: ferredoxin 1 (FDX1) (human), P10109
T1 chain: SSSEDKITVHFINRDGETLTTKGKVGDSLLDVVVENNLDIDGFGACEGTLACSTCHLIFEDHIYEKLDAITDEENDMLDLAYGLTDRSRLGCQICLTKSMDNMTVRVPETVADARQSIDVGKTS

T2: ferredoxin 1 (FDX1) (human) (UniProt P10109)
T2 sequence: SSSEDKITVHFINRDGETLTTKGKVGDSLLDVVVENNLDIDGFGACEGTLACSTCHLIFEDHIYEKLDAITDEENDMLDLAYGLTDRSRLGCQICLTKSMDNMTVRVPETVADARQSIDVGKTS

T3: lipoyltransferase 1 (LIPT1) (human) (UniProt Q9Y234)
T3 sequence: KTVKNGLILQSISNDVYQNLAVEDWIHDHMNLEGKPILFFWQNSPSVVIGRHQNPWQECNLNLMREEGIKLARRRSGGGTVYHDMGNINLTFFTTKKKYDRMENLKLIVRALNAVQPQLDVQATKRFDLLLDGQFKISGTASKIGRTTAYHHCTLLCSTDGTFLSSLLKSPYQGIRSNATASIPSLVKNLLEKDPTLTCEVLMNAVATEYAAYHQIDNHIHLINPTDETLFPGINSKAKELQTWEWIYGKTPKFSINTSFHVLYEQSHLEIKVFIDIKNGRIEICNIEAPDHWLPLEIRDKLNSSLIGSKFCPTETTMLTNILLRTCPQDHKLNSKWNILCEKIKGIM


Experiments:
Assay in all cases: co-IP; Co-IP kit (IEMed, K235); 2 x 10^7 cells crosslinked with 1% formaldehyde at room temperature for 10 min, heat denatured at 95 °C for 15 min; antibody-Protein A/G magnetic beads (anti-FDX1, anti-LIPT1); detection by Western blot
[1] = target: T1, ferredoxin 1 (FDX1) (human), P10109; settings: remark: other sources report otherwise
[2] = target: T2, ferredoxin 1 (FDX1) (human)
[3] = target: T3, lipoyltransferase 1 (LIPT1) (human)

Binder	binding [1]	binding [2]	binding [3]
lipoic acid synthase (LIAS), O43766 28-372 (enzyme) LSSLPDKKKELLQNGPDLQDFVSGDLADRSTWDEYKGNLKRQKGERLRLPPWLKTEIPMGKNYNKLKNTLRNLNLHTVCEEARCPNIGECWGGGEYATATATIMLMGDTCTRGCRFCSVKTARNPPPLDASEPYNTAKAIAEWGLDYVVLTSVDRDDMPDGGAEHIAKTVSYLKERNPKILVECLTPDFRGDLKAIEKVALSGLDVYAHNVETVPELQSKVRDPRANFDQSLRVLKHAKKVQPDVISKTSIMLGLGENDEQVYATMKALREADVDCLTLGQYMQPTRRHLKVEEYITPEKFKYWEKVGNELGFHYTASGPLVRSSYKAGEFFLKNLVAKRKTKDL	binds		
pyruvate dehydrogenase complex isoform (DLAT) (enzyme, UniProt P10515 87-647) SLPPHQKVPLPSLSPTMQAGTIARWEKKEGDKINEGDLIAEVETDKATVGFESLEECYMAKILVAEGTRDVPIGAIICITVGKPEDIEAFKNYTLDSSAAPTPQAAPAPTPAATASPPTPSAQAPGSSYPPHMQVLLPALSPTMTMGTVQRWEKKVGEKLSEGDLLAEIETDKATIGFEVQEEGYLAKILVPEGTRDVPLGTPLCIIVEKEADISAFADYRPTEVTDLKPQVPPPTPPPVAAVPPTPQPLAPTPSAPCPATPAGPKGRVFVSPLAKKLAVEKGIDLTQVKGTGPDGRITKKDIDSFVPSKVAPAPAAVVPPTGPGMAPVPTGVFTDIPISNIRRVIAQRLMQSKQTIPHYYLSIDVNMGEVLLVRKELNKILEGRSKISVNDFIIKASALACLKVPEANSSWMDTVIRQNHVVDVSVAVSTPAGLITPIVFNAHIKGVETIANDVVSLATKAREGKLQPHEFQGGTFTISNLGMFGIKNFSAIINPPQACILAIGASEDKLVPADNEKGFDVASMMSVTLSCDHRVVDGAVGAQWLAEFRKYLEKPITMLL		binds	binds
lipoyltransferase 1 (LIPT1) (enzyme, UniProt Q9Y234 26-373) KTVKNGLILQSISNDVYQNLAVEDWIHDHMNLEGKPILFFWQNSPSVVIGRHQNPWQECNLNLMREEGIKLARRRSGGGTVYHDMGNINLTFFTTKKKYDRMENLKLIVRALNAVQPQLDVQATKRFDLLLDGQFKISGTASKIGRTTAYHHCTLLCSTDGTFLSSLLKSPYQGIRSNATASIPSLVKNLLEKDPTLTCEVLMNAVATEYAAYHQIDNHIHLINPTDETLFPGINSKAKELQTWEWIYGKTPKFSINTSFHVLYEQSHLEIKVFIDIKNGRIEICNIEAPDHWLPLEIRDKLNSSLIGSKFCPTETTMLTNILLRTCPQDHKLNSKWNILCEKIKGIM		binds	
